Results deposited as PubChem BioAssay AID652259 (Drosophila RNAi Screening Center, 2013)
The screen tested about 22,000 reagents; below is a random part of those that have a named target and a result. In the full data, 233 (1.1%) were called active. 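Light values are raw, unnormalised plate reads; the ratio scores behind the reporter calls were not deposited.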 Unmarked entries are inactive. The numbers tell different reagents against one gene apart. The record does not give: the amount of reagent, the time to read-out, the dose of the treatment.

- Test: 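Identify new Wingless signalling regulators in fly cells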 (primary screen)
- Cell system: Drosophila clone 8 imaginal disc epithelial cells
- Reagent: long dsRNA against Drosophila genes
- Challenge: pathway stimulated by co-transfected Wingless expression plasmid
- Measurement: 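Dual luciferase reads per well after Wingless plasmid stimulation: reporter firefly light and Renilla control light; activity is firefly divided by Renilla, a ratio not deposited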
- Reading the numbers: firefly reporter light: higher = more Wg reporter light, before normalisation; Renilla control light: higher = more transfected or surviving cells
- Rule for the call: 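a knock-down is a candidate when at least two out of four statistical tests show it departing from its plate mean; one test alone signals a weak candidate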
- Meaning of the calls: active = candidate regulator (raises or lowers reporter); inactive = not a candidate

PH4alphaMP (GeneID 43624)
- firefly reporter light, replicate 1: 5866
- Renilla control light, replicate 1: 2339

CG43737 (GeneID 32448) #1
- firefly reporter light, replicate 1: 23845
- Renilla control light, replicate 1: 10601

CG43737 (GeneID 32448) #2
- firefly reporter light, replicate 1: 21434
- Renilla control light, replicate 1: 9425

CG43066 (GeneID 37129)
- firefly reporter light, replicate 1: 5031
- Renilla control light, replicate 1: 2003

Zasp66 (GeneID 38988) #1
- firefly reporter light, replicate 1: 3665
- Renilla control light, replicate 1: 1379

Zasp66 (GeneID 38988) #2
- firefly reporter light, replicate 1: 5301
- Renilla control light, replicate 1: 2938

Zasp66 (GeneID 38988) #3
- firefly reporter light, replicate 1: 1892
- firefly reporter light, replicate 2: 7728
- Renilla control light, replicate 1: 1136
- Renilla control light, replicate 2: 3322

Elp3 (GeneID 33649)
- firefly reporter light, replicate 1: 2877
- firefly reporter light, replicate 2: 5264
- Renilla control light, replicate 1: 619
- Renilla control light, replicate 2: 1917

CG13312 (GeneID 39010)
- firefly reporter light, replicate 1: 1467
- firefly reporter light, replicate 2: 6618
- Renilla control light, replicate 1: 1056
- Renilla control light, replicate 2: 2848

eIF3m (GeneID 36565)
- firefly reporter light, replicate 1: 9785
- Renilla control light, replicate 1: 2064

tou (GeneID 36241) #1
- firefly reporter light, replicate 1: 19574
- Renilla control light, replicate 1: 5665

tou (GeneID 36241) #2
- firefly reporter light, replicate 1: 6.44e5
- firefly reporter light, replicate 2: 7.00e5
- Renilla control light, replicate 1: 2.51e5
- Renilla control light, replicate 2: 3.03e5

CG42449 (GeneID 31486)
- firefly reporter light, replicate 1: 20412
- Renilla control light, replicate 1: 7282

vers (GeneID 39374)
- firefly reporter light, replicate 1: 2244
- Renilla control light, replicate 1: 1036

Lam (GeneID 33782)
- firefly reporter light, replicate 1: 1115
- firefly reporter light, replicate 2: 3992
- Renilla control light, replicate 1: 194
- Renilla control light, replicate 2: 285

PIP4K (GeneID 3885565)
- firefly reporter light, replicate 1: 19910
- Renilla control light, replicate 1: 15723

CG32284 (GeneID 317956)
- firefly reporter light, replicate 1: 4041
- Renilla control light, replicate 1: 2389

CG32202 (GeneID 326199)
- firefly reporter light, replicate 1: 8288
- Renilla control light, replicate 1: 2470

CG18223 (GeneID 40068)
- firefly reporter light, replicate 1: 8763
- Renilla control light, replicate 1: 2425

DCTN5-p25 (GeneID 34873)
- firefly reporter light, replicate 1: 2567
- firefly reporter light, replicate 2: 5827
- Renilla control light, replicate 1: 1004
- Renilla control light, replicate 2: 2234

Quoted from the entries so far for reference:
CG18223 (GeneID 40068)
- firefly reporter light, replicate 1: 8763
- Renilla control light, replicate 1: 2425

DCTN5-p25 (GeneID 34873)
- firefly reporter light, replicate 1: 2567
- firefly reporter light, replicate 2: 5827
- Renilla control light, replicate 1: 1004
- Renilla control light, replicate 2: 2234

The listing continues.
CG9231 (GeneID 40130)
- firefly reporter light, replicate 1: 8077
- Renilla control light, replicate 1: 2668

stol (GeneID 34921)
- firefly reporter light, replicate 1: 1973
- firefly reporter light, replicate 2: 4122
- Renilla control light, replicate 1: 720
- Renilla control light, replicate 2: 1960

sif (GeneID 43892) #1
- firefly reporter light, replicate 1: 3217
- Renilla control light, replicate 1: 1620

sif (GeneID 43892) #2
- firefly reporter light, replicate 1: 2981
- firefly reporter light, replicate 2: 11908
- Renilla control light, replicate 1: 2741
- Renilla control light, replicate 2: 4825

sif (GeneID 43892) #3
- firefly reporter light, replicate 1: 4.51e5
- firefly reporter light, replicate 2: 4.89e5
- Renilla control light, replicate 1: 1.65e5
- Renilla control light, replicate 2: 2.10e5

sif (GeneID 43892) #4
- firefly reporter light, replicate 1: 5.44e5
- firefly reporter light, replicate 2: 5.78e5
- Renilla control light, replicate 1: 1.73e5
- Renilla control light, replicate 2: 2.04e5

DUBAI (GeneID 36361)
- firefly reporter light, replicate 1: 4186
- Renilla control light, replicate 1: 1571

POSH (GeneID 36990)
- firefly reporter light, replicate 1: 9776
- Renilla control light, replicate 1: 3161

Spn53F (GeneID 36931)
- firefly reporter light, replicate 1: 5576
- Renilla control light, replicate 1: 2304

CG31600 (GeneID 318834)
- firefly reporter light, replicate 1: 8.53e5
- firefly reporter light, replicate 2: 8.77e5
- Renilla control light, replicate 1: 3.03e5
- Renilla control light, replicate 2: 2.86e5

CG15706 (GeneID 36799)
- firefly reporter light, replicate 1: 4264
- Renilla control light, replicate 1: 1408

kug (GeneID 40191)
- firefly reporter light, replicate 1: 5466
- Renilla control light, replicate 1: 2069
